Results taken from patent US20250177406A1, “PHARMACEUTICAL COMPOSITION FOR TREATING TUMORS” (Eisai R&D Management Co., Ltd., priority 2022, published 2025).

System: KRAS G12C mutation-positive human pancreatic cancer cell line MIA PaCa-2
Test: cells
Conditions: MIA PaCa-2, 120 h

COc1cc2nc(C)nc(N[C@H](C)c3cc(N)cc(C(F)(F)F)c3)c2cc1O[C@H]1CCOC1 [BI3406]
GI50: 3.9 µM
